Results are given in words; binding and its absence hold for the method and conditions named. Some results given as binding are weak or reduced against the parent protein; the word gives no strength.
Legend:
[1] = target: Cx43 CT (Connexin 43 carboxyl terminus, amino acids 255 to 382) (UniProt P08050); test: summary grade of interaction with Cx43 CT (Table 1)
[2] = target: Cx43 CT (Connexin 43 carboxyl terminus, amino acids 255 to 382) (UniProt P08050); test: summary sentence of the kinase assay section
[3] = target: Cx43 CT (Connexin 43 carboxyl terminus, amino acids 255 to 382) (UniProt P08050); test: protein thermal shift assay of Cx43 CT
[4] = target: Cx43 CT (Connexin 43 carboxyl terminus, amino acids 255 to 382) (UniProt P08050); test: summary of the biochemical characterizations
GST-Cx43 CT [5] = target: T1, GST-Cx43 CT (Rattus norvegicus, UniProt P08050); test: EDC cross-linking of the kinase reaction mixture, SDS-PAGE and MS/MS
[6] = target: Cx43 CT (Connexin 43 carboxyl terminus, amino acids 255 to 382) (UniProt P08050); test: protein thermal shift assay
[7] = target: Cx43 CT (Connexin 43 carboxyl terminus, amino acids 255 to 382) (UniProt P08050); test: summary sentence in Example 21
[8] = target: Cx43 CT (Connexin 43 carboxyl terminus, amino acids 255 to 382) (UniProt P08050); test: SPR, biotin-alpha CT1 on streptavidin chip, Cx43 CT analyte 0.5 to 15 µM
GST-Cx43 CT [9] = target: T1, GST-Cx43 CT; test: EDC cross-linking blots, alpha CT1 at 5, 10 and 25 µM
GST-Cx43 CT [10] = target: T1, GST-Cx43 CT; test: EDC cross-linking of kinase reaction mixtures with GST-Cx43 CT, Coomassie gel and MS/MS
[11] = target: Cx43 CT (Connexin 43 carboxyl terminus, amino acids 255 to 382) (UniProt P08050); test: SPR, captured aCT1, Cx43 CT analyte at 100 uM

Protein sequences, listed by entry. Tags and fused reporters are not part of them. Residues count along the entry.
UniProt P08050, residues 255-382: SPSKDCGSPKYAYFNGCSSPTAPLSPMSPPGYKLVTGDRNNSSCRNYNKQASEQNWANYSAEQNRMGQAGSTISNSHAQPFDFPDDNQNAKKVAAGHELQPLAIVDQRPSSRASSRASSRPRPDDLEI

Measured: binding

B1: alpha CT11 (peptide)
peptide: RPRPDDLEI
modifications: biotin tag in the kinase assay
binds: [1] | [2] | [3]

B2: alpha CT1-I (peptide)
peptide: RQPKIWFPNRRKPWKKRPRPDDLE
modifications: biotin tag in cross-linking and kinase assays
binds: [1] | [2] | [3] | [4]

B3: alpha CT1 (peptide)
peptide: RQPKIWFPNRRKPWKKRPRPDDLEI
modifications: biotin tag (biotin-alpha CT1) in the cross-linking, SPR and kinase assays
binds: [1] | GST-Cx43 CT [5] | [2] | [6] | [7] | [8] | GST-Cx43 CT [9] | [3] | GST-Cx43 CT [10] | [11] | [4]
